# Laboratory results as given in PMC9723633.
# The chains behind the UniProt entries cited, without tags or fusion partners.
# UniProt P61406: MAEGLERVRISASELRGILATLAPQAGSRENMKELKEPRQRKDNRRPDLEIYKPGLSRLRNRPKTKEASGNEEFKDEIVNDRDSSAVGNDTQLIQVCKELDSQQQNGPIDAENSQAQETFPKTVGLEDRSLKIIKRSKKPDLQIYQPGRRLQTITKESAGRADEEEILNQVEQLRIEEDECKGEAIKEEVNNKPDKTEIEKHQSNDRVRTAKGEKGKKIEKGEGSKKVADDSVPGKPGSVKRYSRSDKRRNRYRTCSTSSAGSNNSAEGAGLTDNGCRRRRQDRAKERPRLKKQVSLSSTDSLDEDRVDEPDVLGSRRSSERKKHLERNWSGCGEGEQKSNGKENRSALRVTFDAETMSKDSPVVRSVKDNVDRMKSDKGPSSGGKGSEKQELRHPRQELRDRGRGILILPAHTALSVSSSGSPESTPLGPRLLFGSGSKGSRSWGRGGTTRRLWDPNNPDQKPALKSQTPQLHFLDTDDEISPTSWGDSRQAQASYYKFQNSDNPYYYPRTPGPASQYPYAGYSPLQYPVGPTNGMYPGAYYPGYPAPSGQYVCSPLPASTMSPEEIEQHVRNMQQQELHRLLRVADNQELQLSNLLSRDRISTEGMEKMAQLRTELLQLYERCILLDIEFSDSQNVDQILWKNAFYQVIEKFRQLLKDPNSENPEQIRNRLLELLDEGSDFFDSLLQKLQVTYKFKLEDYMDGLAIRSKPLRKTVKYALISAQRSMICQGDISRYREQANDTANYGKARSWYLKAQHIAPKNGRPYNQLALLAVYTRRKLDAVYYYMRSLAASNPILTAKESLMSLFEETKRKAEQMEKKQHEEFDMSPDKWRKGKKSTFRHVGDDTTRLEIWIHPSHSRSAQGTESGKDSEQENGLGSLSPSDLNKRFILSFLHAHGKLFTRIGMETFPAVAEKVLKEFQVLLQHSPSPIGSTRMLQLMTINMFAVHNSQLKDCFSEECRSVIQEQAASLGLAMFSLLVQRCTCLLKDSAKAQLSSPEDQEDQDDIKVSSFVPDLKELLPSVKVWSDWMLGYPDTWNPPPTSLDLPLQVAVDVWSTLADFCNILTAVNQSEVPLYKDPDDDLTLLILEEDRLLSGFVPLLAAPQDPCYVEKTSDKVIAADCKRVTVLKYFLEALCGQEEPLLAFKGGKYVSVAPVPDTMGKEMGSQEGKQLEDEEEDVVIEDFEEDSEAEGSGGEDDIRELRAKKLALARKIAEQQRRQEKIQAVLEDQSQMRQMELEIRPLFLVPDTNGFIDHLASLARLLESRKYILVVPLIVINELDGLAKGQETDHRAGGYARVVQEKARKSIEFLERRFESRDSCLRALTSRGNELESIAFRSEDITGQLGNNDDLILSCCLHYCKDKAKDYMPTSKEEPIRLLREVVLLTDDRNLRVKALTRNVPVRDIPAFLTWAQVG
# UniProt Q9JMB7: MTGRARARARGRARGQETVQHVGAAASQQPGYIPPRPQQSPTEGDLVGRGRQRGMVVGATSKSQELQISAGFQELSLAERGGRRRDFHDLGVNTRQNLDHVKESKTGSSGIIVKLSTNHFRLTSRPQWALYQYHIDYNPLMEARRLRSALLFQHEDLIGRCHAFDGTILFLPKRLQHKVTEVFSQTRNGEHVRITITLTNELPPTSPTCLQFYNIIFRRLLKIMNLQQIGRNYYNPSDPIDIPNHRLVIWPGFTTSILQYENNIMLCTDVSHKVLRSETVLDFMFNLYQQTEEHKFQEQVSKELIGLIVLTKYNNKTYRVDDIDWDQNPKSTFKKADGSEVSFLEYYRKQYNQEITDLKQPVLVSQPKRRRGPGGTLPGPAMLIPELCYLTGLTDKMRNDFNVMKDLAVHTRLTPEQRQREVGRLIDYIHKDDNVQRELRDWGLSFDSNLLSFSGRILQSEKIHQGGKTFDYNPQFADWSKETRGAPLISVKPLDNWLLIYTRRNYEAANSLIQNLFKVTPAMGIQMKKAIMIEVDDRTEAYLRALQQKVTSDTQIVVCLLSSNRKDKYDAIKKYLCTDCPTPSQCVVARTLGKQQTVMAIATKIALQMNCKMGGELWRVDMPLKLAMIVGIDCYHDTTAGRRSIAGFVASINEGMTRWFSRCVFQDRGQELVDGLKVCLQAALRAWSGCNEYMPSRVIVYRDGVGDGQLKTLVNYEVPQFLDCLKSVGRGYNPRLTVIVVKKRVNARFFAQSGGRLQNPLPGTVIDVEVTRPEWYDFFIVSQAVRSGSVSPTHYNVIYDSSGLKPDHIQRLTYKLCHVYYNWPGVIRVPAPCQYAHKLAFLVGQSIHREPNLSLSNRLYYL
# No constants are given. Whether binding was seen depends on the method and setting. In cells and extracts the contact can be indirect. Some entries that bind do so weakly or less than the wild type.
# T1: DEAD box polypeptide 4 (DDX4) (mouse (endogenous in testis)) (UniProt Q61496)
# T1 sequence: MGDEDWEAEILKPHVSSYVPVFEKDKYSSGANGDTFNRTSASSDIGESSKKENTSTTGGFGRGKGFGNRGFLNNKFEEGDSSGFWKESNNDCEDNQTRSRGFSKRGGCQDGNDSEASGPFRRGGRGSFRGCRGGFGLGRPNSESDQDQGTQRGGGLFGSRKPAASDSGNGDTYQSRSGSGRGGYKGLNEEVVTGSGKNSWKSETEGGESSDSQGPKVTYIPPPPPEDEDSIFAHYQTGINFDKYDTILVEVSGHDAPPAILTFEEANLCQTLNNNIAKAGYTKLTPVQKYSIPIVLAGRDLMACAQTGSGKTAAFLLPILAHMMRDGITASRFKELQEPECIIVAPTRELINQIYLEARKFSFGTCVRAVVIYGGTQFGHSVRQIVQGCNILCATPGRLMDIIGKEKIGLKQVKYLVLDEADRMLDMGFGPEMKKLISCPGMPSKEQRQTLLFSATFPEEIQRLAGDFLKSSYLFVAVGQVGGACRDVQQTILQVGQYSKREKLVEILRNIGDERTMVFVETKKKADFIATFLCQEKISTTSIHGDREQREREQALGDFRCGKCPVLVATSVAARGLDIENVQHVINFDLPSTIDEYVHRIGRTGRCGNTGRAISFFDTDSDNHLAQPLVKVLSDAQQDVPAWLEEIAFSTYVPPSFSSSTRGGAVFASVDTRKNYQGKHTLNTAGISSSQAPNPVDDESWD
# Assays:
# [1] = biological target: SMG6 (mouse (endogenous in testis)) (UniProt P61406); test: co-IP; adult mouse testis lysate in isotonic nondenaturing lysis buffer (150 mM NaCl, 5 mM EDTA, 50 mM Tris-HCl pH 8.0, 1% Triton X-100); antibody overnight at 4°C, Dynabead Protein G; with or without RNase treatment; western blotting with anti-SMG6 and anti-PIWIL1; rabbit IgG as negative control
# [2] = biological target: T1, DEAD box polypeptide 4 (DDX4) (mouse (endogenous in testis)); test: co-IP; chromatoid bodies isolated by anti-DDX4 IP (Dynabead Protein G, overnight at 4°C) from the CB-enriched pellet fraction of mouse germ cells fixed in 0.1% PFA and sonicated in RIPA buffer; western blotting; rabbit IgG as control; control or Smg6-cKO mice
binding [1],binding [2],Molecule
binds,–,PIWIL1 (from UniProt Q9JMB7 1-862)
–,binds,SMG6 (from UniProt P61406 1-1418)
–,no binding,"SMG7 (protein, UniProt Q5RJH6 1-1138) MSLQSAQYLRQAEVLKAEMTDSKLGPAEVWTSRQALQDLYQKMLVTDLEYALDKKVEQDLWNHAFKNQITTLQGQAKNRANPNRSEVQANLSLFLEAASGFYTQLLQELCTVFNVDLPCRVKSSQLGIISNKQTHSSTIVKPQSSSCSYICQHCLVHLGDIARYRNQTSQAESYYRHAAQLVPSNGQPYNQLAILASSKGDHLTTIFYYCRSIAVKFPFPAASTNLQKALSKALESRDELKTKWGVSDFIKAFIKFHGHVYLSKSLEKLSPLREKLEEQFKRLLFQKAFNSQQLVHVTVINLFQLHHLRDFSNETEQHSYSQDEQLCWTQLLALFMSFLGILCKCPLQNDSQESNNAYPLPAVKVSMDWLRLRPRVFQEAVVDERQYIWPWLISLLNSFHPREDDLSNTNATPLPEEFELQGFLALRPSFRNLDFSKGHQGITGDKEGQQRRIRQQRLISIGKWIADNQPRLIQCENEVGKLLFITEIPELILEDPSEAKENLILQETSVVESLATDGSPGLKSVLSTGRNPSNSCDSGEKPVVTFKENIKPREVNQGRSFPPKEVKSQTELRKTPVSEARKTPVTQTPSQTSNSQFIPIHHPGAFPPLPSRPGFPPPTYVIPPPVAFSMGSGYTFPAGVSVPGTFLQSTAHSPAGNQVQAGKQSHIPYSQQRPSGPGPMNQGPQQSQPPSQPPLTSLPAQPTAQSTSQLQVQALAQQQQSPTKVIPALGKSPPHHSGFQQYQQADASKQLWNPPQVQSPLGKIMPVKQSYYLQTQDPIKLFEPSLQPPVIQQQPLEKKMKPFPMEPYNHNPSEVKVPEFYWDSSYSMADNRAVMAQQPNMDRRSKRSPGVFRPEQDPVPRMPFEDPKSSPLLPPDLLKSLAALEEEEELIFSNPPDLYPALLGPLASLPGRSLFKSLLEKPSELMSHSSSFLSLTGFSVNQERYPNSSMFNEVYGKNLTTSSKAELNPSVASQETSLYSLFEGTPWSPSLPASSDHSTPASQSPHSSNPSSLPSSPPTHNHNSAPFSNFGPIGTPDNRDRRPADRWKTDKPAMGGFGVDYLSATSSSESSWHQASTPSGTWTGHGPSMEDSSAVLMESLKSIWSSSMMHPGPSALEQLLMQQKQKQQRGQGAMNPPH"
